The whole screen tested about 330,000 compounds, of which about 7,700 (2.3%) were called active. Inconclusive results, whose numbers are uncertain, are shown with a selection of clear calls. Calls follow the shape of the dose curve; as a rule, active = well fitted inhibition curve with a large enough effect; inconclusive = small, poorly fitted or top-dose-only effect, or effect the other way; inactive = flat fitted curve, though single readings scatter. Potencies of inconclusive entries are doubtful fits and often do not repeat.
Assay: qHTS screen for small molecules that inhibit ELG1-dependent DNA repair in human embryonic kidney (HEK293T) cells expressing luciferase-tagged ELG1; also: nearly all actives have a fitted effect of over 55% in size
Details: HEK293T ELG1-luciferase reporter, luminescence, 16 h, DNA damage induced by 5-fluorouridine; activity change, negative = inhibition: at 46.1 µM (top of the series)
Procedure, shortened: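 HEK293T cells expressing luciferase-tagged ELG1 (2,000/well) received 5-Fluorouridine plus compound or DMSO for 16 hr at 37 °C. Luciferase was read by ONE-Glo luminescence after 30 min at room temperature.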
% is scaled to controls: 0 for no effect and ±100 for the full control effect; potency is read from the fitted curve at half-maximal effect.

Compound | Potency | activity change, negative = inhibition
CC1CCCCC1NC(=O)c1ccc(N2CCCC2=O)cc1 (centres undefined) | inconclusive: 20.6 µM [activator, partial curve] | –
N#CC1=C(N)Oc2cc3c(cc2C1c1ccc(Cl)cc1)OCO3 (centres undefined) | inconclusive: 29.1 µM [inhibitor, single point] | –
Cc1cn([C@H]2C[C@H](O)[C@@H](CCC(=O)NCCCn3ccnc3)O2)c(=O)[nH]c1=O | inconclusive: 20.6 µM [activator, partial curve, poor fit] | –
O=C(Nc1cccc(C(=O)Nc2ccc(F)cc2F)c1)c1ccccc1 | inconclusive: 8.2 µM [inhibitor, partial curve, poor fit] | –
CCS(=O)(=O)N1Cc2ccccc2CC1C(=O)OCC(=O)Nc1ccc(C)cc1 (centres undefined) | – | inactive: 1.45%
Cn1c(C(=O)NC2CCCCC2)cc2sccc21 | inconclusive: 16.4 µM [activator, partial curve] | –
O=C(Nc1ccccc1)c1sc2cc(C(F)(F)F)cnc2c1-c1cccs1 | – | inactive: -2.26%
Oc1ccc(Br)cc1C=Nc1ccc(Cl)cc1 | inconclusive: 1.83 µM [activator, partial curve, poor fit] | –
Cc1sc2nc(C3CC3)nc(N3CCN(C(=O)c4ccccc4F)CC3)c2c1C | inconclusive: 29.1 µM [inhibitor, single point] | –
O/N=C/c1ccccc1OCc1ccccc1F | – | inactive: 24.5%
COc1cc(CN(C)c2ccc(S(=O)(=O)N3CCCC3)cn2)ccc1OC(F)F | inconclusive: 18.3 µM [inhibitor, single point] | –
OC(COCc1ccc(Cl)cc1)CN1CCCCC1 (centres undefined) | – | inactive: 18.5%
Cc1ccc(C(=O)NCC(=O)N/N=C/c2sccc2C)cc1[N+](=O)[O-] | – | inactive: -10.3%
Cc1cc(NC(=O)CSc2nc(-c3ccccc3)cs2)no1 | – | inactive: 0.194%
O=C(COC(=O)Cc1n[nH]c(=O)c2ccccc12)Nc1c(Cl)cccc1C(F)(F)F | – | inactive: 0.146%
CN1CCc2c(sc(NC(=O)c3ccc(S(=O)(=O)N4CCOCC4)cc3)c2C(N)=O)C1 | – | inactive: -0.73%
Cc1c(CCC(=O)N2CCC[C@H]2C(=O)O)c(=O)oc2cc3oc4c(c3cc12)CCCC4 | inconclusive: 1.83 µM [activator, single point] | –
O=C(NCCCCNC(=O)c1cccs1)c1cccs1 | – | inactive: -4.81%
Oc1ccc(-c2nnc(-c3ccc(O)cc3)nn2)cc1 | inconclusive: 3.26 µM [activator, full curve] | –
Cc1cc2occ(CC(=O)N(C)CC(=O)Nc3ccccc3Br)c2cc1C | – | inactive: -14.3%
O=C(CSc1ccc(Cl)cc1)Nc1ccccc1N1CCN(C(=O)c2ccc(Cl)cc2)CC1 | active: 23.1 µM | –
O=[N+]([O-])c1ccc2[nH]c(O)c(N=Nc3ccc(F)cc3)c2c1 | – | inactive: -26.3%
O=c1c2c3c(sc2nc(NCCO)n1-c1ccccc1)CCCC3 | inconclusive: 10.3 µM [inhibitor, partial curve] | –

Five entries from above, sorted by SMILES length, low to high:
Compound | Potency | activity change, negative = inhibition
Oc1ccc(Br)cc1C=Nc1ccc(Cl)cc1 | inconclusive: 1.83 µM [activator, partial curve, poor fit] | –
N#CC1=C(N)Oc2cc3c(cc2C1c1ccc(Cl)cc1)OCO3 (centres undefined) | inconclusive: 29.1 µM [inhibitor, single point] | –
O=C(Nc1cccc(C(=O)Nc2ccc(F)cc2F)c1)c1ccccc1 | inconclusive: 8.2 µM [inhibitor, partial curve, poor fit] | –
O=C(COC(=O)Cc1n[nH]c(=O)c2ccccc12)Nc1c(Cl)cccc1C(F)(F)F | – | inactive: 0.146%
Cc1cn([C@H]2C[C@H](O)[C@@H](CCC(=O)NCCCn3ccnc3)O2)c(=O)[nH]c1=O | inconclusive: 20.6 µM [activator, partial curve, poor fit] | –

More results.

Compound | Potency | activity change, negative = inhibition
C(C#CCCCCCCCCC[n+]1ccccc1)#CCCCCCCCCC[n+]1ccccc1 | active: 18.3 µM | –
COc1ccc(C(=O)OCC(=O)NC(=O)Nc2ccccc2F)c(OC)c1 | inconclusive: 18.3 µM [activator, partial curve, poor fit] | –
Cc1ccc(C(=O)N2CCN(Cc3ccc4c(c3)OCO4)CC2)cc1C | – | inactive: -11%
C=CCNC(=O)NC(=O)COC(=O)/C(C#N)=C/c1ccc(OC)cc1 | – | inactive: 15.6%
CC(=O)c1ccc(N2CCC(c3cc(-c4ccc(Cl)cc4)n[nH]3)CC2)c([N+](=O)[O-])c1 | inconclusive: 25.1 µM [inhibitor, single point] | –
Cc1sc(-c2ccccn2)nc1OC(=O)c1ccc(Cl)cc1 | inconclusive: 10.3 µM [inhibitor, partial curve, poor fit] | –
O=C(Oc1ccc(F)c(F)c1)c1ccc2c(=O)n3c(nc2c1)CCC3 | inconclusive: 3.66 µM [activator, full curve, poor fit] | –
Cn1c(/C=C/c2ccc(Cl)cc2)c([N+](=O)[O-])c(=O)n(C)c1=O | inconclusive: 29.1 µM [inhibitor, single point] | –
COc1ccc2c(c1)c(/C=N/Nc1ccc(C(=O)O)cc1)c(C)n2C | inconclusive: 16.4 µM [activator, partial curve] | –
O=C(O)c1ccc(N/N=C/c2ccc(F)c(F)c2)cc1 | inconclusive: 0.651 µM [activator, full curve] | –
Cc1nc(N2CCCCC2)c2c(-c3cccs3)csc2n1 | inconclusive: 2.31 µM [inhibitor, full curve, poor fit] | –
CC(=O)Nc1cccc(OCC(O)Cn2c(C)nc3ccccc32)c1 (centres undefined) | inconclusive: 16.4 µM [inhibitor, single point] | –
CC12CC(c3ccccc3O1)N(C(=O)c1ccco1)C(=S)N2c1ccccc1 (centres undefined) | – | inactive: -3.32%
FC(F)(F)c1cc(-c2cccs2)nc(-n2cc(Cl)cn2)n1 | inconclusive: 20.6 µM [inhibitor, partial curve, poor fit] | –
Cc1ccc(C(=O)NCCNC(=O)c2cccnc2)cc1 | inconclusive: 16.4 µM [activator, partial curve, poor fit] | –
CC(C)(C)NC(=O)COC(=O)c1ccccc1NC(=O)c1ccco1 | – | inactive: -3.42%
COc1ccc(NC(=O)CSc2ccccc2)c(OC)c1 | inconclusive: 14.6 µM [activator, partial curve] | –
O=C(Nc1ccc(CN2CCOCC2)cc1)c1ccc(Br)o1 | inconclusive: 16.4 µM [activator, partial curve] | –
CCCCCCSc1ccc(-c2nc3ccc(Cl)cn3c2NCCCC)cc1OC | – | inactive: 11.1%
FC(F)(F)c1cccc(Cc2noc(CN(Cc3ccccn3)CC3CCCO3)n2)c1 (centres undefined) | inconclusive: 29.1 µM [inhibitor, single point] | –
Nc1ccc(Cc2ccc(N)c(O)c2)cc1O | active: 9.2 µM | –
Cc1ccc(C(=O)NCCc2sc(C)nc2C)cc1 | inconclusive: 23.1 µM [activator, single point] | –
Cc1cc(N2CCCC2=O)cc(C)c1S(=O)(=O)Nc1c(C)nn(C)c1C | inconclusive: 29.1 µM [inhibitor, partial curve, poor fit] | –

Compound | Potency | activity change, negative = inhibition
COc1cc(CNc2ncc(-c3ccc(Br)cc3)n2C)cc(OC)c1OC | – | inactive: -3.74%
CC(C)OC(=O)CSc1nc2c(cc1C#N)CCCCC2 | inconclusive: 20.6 µM [activator, single point] | –
COC(=O)c1ccccc1NC(=O)CSc1nnc(-c2ccc(C)cc2)o1 | inconclusive: 16.4 µM [activator, partial curve] | –
Cc1ccc(OCCn2cc(/C=C(\C#N)C(=O)NCC3CCCO3)c3ccccc32)cc1C (centres undefined) | inconclusive: 20.6 µM [inhibitor, partial curve] | –
CCOc1ccc(CNC(=O)c2cc3oc4ccccc4c3n2C)cc1 | inconclusive: 25.9 µM [activator, single point] | –
O=C(N/N=C/c1ccccn1)c1ccc(Cl)cc1 | inconclusive: 20.6 µM [activator, partial curve] | –
C=CCn1c(CNC(=O)c2cccs2)nnc1SCC(=O)Nc1ccc(C(=O)O)cc1 | inconclusive: 29.1 µM [activator, single point] | –
CC(=O)Nc1ccc(NC(=O)c2ccc(NS(=O)(=O)c3cccc4cccnc34)cc2)cc1 | – | inactive: 18.4%
COc1ccc(C(=O)n2cc(C(=O)c3cc(C)ccc3O)cn2)cc1 | inconclusive: 23.1 µM [inhibitor, partial curve, poor fit] | –
ClCC1CSC(=NC23CC4CC(CC(C4)C2)C3)O1 (centres undefined) | inconclusive: 25.9 µM [inhibitor, partial curve, poor fit] | –
CCN(CCNC(=O)CN1CCN(Cc2ccc(Cl)cc2)C1=O)c1ccccc1 | inconclusive: 20.6 µM [inhibitor, single point] | –
CN(Cc1nc(-c2cccc(Cl)c2)no1)C1CCOCC1 | inconclusive: 18.3 µM [activator, partial curve] | –
O=C(O)c1ccc(CSc2nc3ccccc3o2)cc1 | – | inactive: 4.77%
Cc1ccc(N2CC(C(=O)Nc3ccc(S(=O)(=O)NCC4CCCO4)cc3)CC2=O)cc1C (centres undefined) | – | inactive: 3.35%
Nc1c(-c2ccccc2)cnn1-c1ccccc1 | inconclusive: 18.3 µM [activator, partial curve] | –
COc1cccc(-n2cc(CN(C)Cc3nc(Cc4ccccc4)no3)cn2)c1 | inconclusive: 29.1 µM [inhibitor, single point] | –
COc1cc(-c2noc(C)c2C#Cc2ccccn2)cc(OC)c1OC | inconclusive: 4.11 µM [inhibitor, partial curve, poor fit] | –
CCOC(=O)c1c(C)[nH]c(N=Nc2ccccc2C)c1C | inconclusive: 9.2 µM [activator, partial curve] | –
CCN(CC)CCCNC(=O)c1cc2nc3c(c(C(F)(F)F)n2n1)CCc1ccccc1-3 | inconclusive: 13 µM [activator, partial curve, poor fit] | –
COc1cc(C2NC(=S)NC(C)=C2C(=O)Nc2ccc(C)cc2)ccc1O (centres undefined) | inconclusive: 14.6 µM [activator, partial curve] | –
CCOCCCNC(=S)N1CCCN(c2nc3cc(C)cc(C)c3cc2C#N)CC1 | inconclusive: 20.6 µM [inhibitor, single point] | –
COc1cc(/C=C/c2cc(C(F)(F)F)[nH]c(=O)n2)cc(OC)c1OC | inconclusive: 29.1 µM [inhibitor, single point] | –
CCCCCn1c(CN2CCN(c3cccc(Cl)c3)CC2)nc2c1c(=O)[nH]c(=O)n2C | inconclusive: 29.1 µM [inhibitor, single point] | –

— PubChem BioAssay AID504467 (National Center for Advancing Translational Sciences (NCATS), 2011)
